Assay results: publication PMC4374768
The exact form of at least one protein or probe is not confirmed. At least one verdict was read from the data and is not stated in words by the source. Where a protein sequence is shown, tags need not be part of it.

Target: T1, His6-TyrR (UniProt B2D1S2)
T1 sequence (looked up, limits assumed): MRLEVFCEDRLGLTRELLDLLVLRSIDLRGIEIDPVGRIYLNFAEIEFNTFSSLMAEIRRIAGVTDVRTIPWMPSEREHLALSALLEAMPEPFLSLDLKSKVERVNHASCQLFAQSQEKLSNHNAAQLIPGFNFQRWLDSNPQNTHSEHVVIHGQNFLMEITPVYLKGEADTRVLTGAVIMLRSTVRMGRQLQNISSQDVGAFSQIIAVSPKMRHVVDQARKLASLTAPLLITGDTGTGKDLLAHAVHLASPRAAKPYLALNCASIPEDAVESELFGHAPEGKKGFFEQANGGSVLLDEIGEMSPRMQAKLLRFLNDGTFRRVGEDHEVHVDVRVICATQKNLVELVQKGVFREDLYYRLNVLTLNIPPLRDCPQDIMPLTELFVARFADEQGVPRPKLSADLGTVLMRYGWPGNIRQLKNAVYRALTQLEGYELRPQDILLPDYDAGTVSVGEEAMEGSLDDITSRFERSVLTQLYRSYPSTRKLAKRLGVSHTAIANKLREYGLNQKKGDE
Assay: EMSA
Details: 0.1 mM ATP, no apparent affinity change, 20% glycerol, 250 mM NaCl, 50 mM Tris-Cl pH 7.5, 5 mM MgCl2, 2.5 mM DTT, 2.5 mM EDTA, 0.1 mM Trp, Phe or Tyr, 1 ug poly d(I-C), 50 ng DNA, recombinant protein, protein details: N-terminal His6, probe letters rebuilt from the primers and the genome

Measured: binding result

GGTTCGCATAACAGGTGTCCTTCTGACGTTGACCTCACTTTGAGTATTAAAGAAGCGTGATGGCTGTCCAGAATTGGTCGTAAGAAGGGCATGGAAAGAATGCTTTACAAAAAAGGCTGCGCTATGCTCTTTTTTTTCATGTAAATGTAAACGTATACACTGATTTTTCCTTTCAGCGCCAGAGGGCATCAGAATGGG (double strand) [akr-ipdC intergenic region wild-type]
binds: 0.1 mM L-phenylalanine | 0.1 mM L-tryptophan | 0.1 mM L-tyrosine
